Experimental data: PubChem BioAssay AID743121 (NCATS, 2013)
In all, the deposit lists about 26,000 reagents; this is a part drawn at random. 167 of all reagents (0.63%) were called active. 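Calls are per gene from RSA p-values that are not deposited; an individual active-marked siRNA can sensitise only weakly.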 Reagents against one gene are numbered here. Not all columns of the deposit are shown. Reagent sequences are not shown.

- Screen: 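Genes whose silencing strengthens cell killing by camptothecin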 (primary screen)
- System: MDA-MB-231 cells, a human breast cancer line
- Reagents: single siRNA against human genes, 20 nM siRNA (0.8 pmol per well)
- Duration: 120 h (drug added 48 h after transfection, read 72 h later)
- Treatment: camptothecin 20 nM (about EC30) for 72 h; vehicle 0.1% DMSO in parallel plates
- Measurement: 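CellTiter-Glo ATP signal, scaled to control siRNA as percent viability; sensitisation given as log2 of untreated divided by camptothecin-treated viability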
- Reading the numbers: log2 vehicle/camptothecin viability: higher = stronger sensitisation to camptothecin; viability with camptothecin: higher = more viable cells
- Hit rule: 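Active genes have an RSA gene-level p-value below 0.001, computed from the ratios of their separate siRNAs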

| target | siRNA no. | log2 vehicle/camptothecin viability | viability with camptothecin (% of control) | Call |
| --- | --- | --- | --- | --- |
| RGS2 (regulator of G protein signaling 2) | 1 | -0.00195 | 91.7 | inactive |
| RGS2 (regulator of G protein signaling 2) | 2 | -0.0107 | 97.7 | inactive |
| RGS2 (regulator of G protein signaling 2) | 3 | 0.0764 | 100 | inactive |
| FURIN (furin, paired basic amino acid cleaving enzyme) | 1 | 0.204 | 27.8 | inactive |
| FURIN (furin, paired basic amino acid cleaving enzyme) | 2 | 0.245 | 56.8 | inactive |
| FURIN (furin, paired basic amino acid cleaving enzyme) | 3 | 0.148 | 31.7 | inactive |
| ASS1 (argininosuccinate synthase 1) | 1 | 0.242 | 67.6 | inactive |
| ASS1 (argininosuccinate synthase 1) | 2 | 0.0656 | 72.5 | inactive |
| ASS1 (argininosuccinate synthase 1) | 3 | -0.682 | 56.8 | inactive |
| ASS1 (argininosuccinate synthase 1) | 4 | -0.325 | 85.4 | inactive |
| MED6 (mediator complex subunit 6) | 1 | -0.354 | 119 | inactive |
| MED6 (mediator complex subunit 6) | 2 | 0.0261 | 46 | inactive |
| MED6 (mediator complex subunit 6) | 3 | -0.0693 | 47.4 | inactive |
| MED6 (mediator complex subunit 6) | 4 | -0.274 | 82.3 | inactive |
| PKD2L2 | 1 | -0.0246 | 65.8 | inactive |
| PKD2L2 | 2 | -0.231 | 78.5 | inactive |
| PKD2L2 | 3 | 0.00954 | 57.5 | inactive |
| PKD2L2 | 4 | -0.254 | 54.2 | inactive |

Continued, starting with the last 4 of the part before.
| target | siRNA no. | log2 vehicle/camptothecin viability | viability with camptothecin (% of control) | Call |
| --- | --- | --- | --- | --- |
| PKD2L2 | 1 | -0.0246 | 65.8 | inactive |
| PKD2L2 | 2 | -0.231 | 78.5 | inactive |
| PKD2L2 | 3 | 0.00954 | 57.5 | inactive |
| PKD2L2 | 4 | -0.254 | 54.2 | inactive |
| PXK (PX domain containing serine/threonine kinase like) | 1 | -0.314 | 121 | inactive |
| PXK (PX domain containing serine/threonine kinase like) | 2 | -0.328 | 81.9 | inactive |
| PXK (PX domain containing serine/threonine kinase like) | 3 | -0.416 | 66.9 | inactive |
| PXK (PX domain containing serine/threonine kinase like) | 4 | -0.196 | 120 | inactive |
| BAG6 (BAG cochaperone 6) | 1 | -0.38 | 102 | inactive |
| BAG6 (BAG cochaperone 6) | 2 | 0.00309 | 76 | inactive |
| BAG6 (BAG cochaperone 6) | 3 | -0.381 | 90.5 | inactive |
| BAG6 (BAG cochaperone 6) | 4 | 0.174 | 55.8 | inactive |
| PPFIA2 (PPFI scaffold protein A2) | 1 | 0.17 | 62.5 | inactive |
| PPFIA2 (PPFI scaffold protein A2) | 2 | -0.00717 | 31.5 | inactive |
| PPFIA2 (PPFI scaffold protein A2) | 3 | 0.446 | 2.23 | inactive |
| PPFIA2 (PPFI scaffold protein A2) | 4 | -0.0773 | 87.9 | inactive |
